No constants are given. Whether binding was seen depends on the method and setting. Binding seen in cells or lysates may run through a third protein. Some results given as binding are weak or reduced against the parent protein; the word gives no strength.
Biological target: poly(A) binding protein (human (endogenous in K562, THP1, HEK293T, HeLa)), P11940
Assay: co-IP
Conditions: remark: other sources report otherwise

B1: Ribonuclease inhibitor 1, P13489 1-461 (protein)
chain: MSLDIQSLDIQCEELSDARWAELLPLLQQCQVVRLDDCGLTEARCKDISSALRVNPALAELNLRSNELGDVGVHCVLQGLQTPSCKIQKLSLQNCCLTGAGCGVLSSTLRTLPTLQELHLSDNLLGDAGLQLLCEGLLDPQCRLEKLQLEYCSLSAASCEPLASVLRAKPDFKELTVSNNDINEAGVRVLCQGLKDSPCQLEALKLESCGVTSDNCRDLCGIVASKASLRELALGSNKLGDVGMAELCPGLLHPSSRLRTLWIWECGITAKGCGDLCRVLRAKESLKELSLAGNELGDEGARLLCETLLEPGCQLESLWVKSCSFTAACCSHFSSVLAQNRFLLELQISNNRLEDAGVRELCQGLGQPGSVLRVLWLADCDVSDSSCSSLAATLLANHSLRELDLSNNCLGDAGILQLVESVRQPGCLLEQLVLYDIYWSEEMEDRLQALEKDKPSLRVIS
Q: How did the binding turn out when B1 was run?
A: Its binding is “binds”.

— article doi:10.1101/2024.03.29.586999
